Results published in the supplement of paper PMC10849652.
The other results are listed elsewhere or left out.

Chains of the proteins cited; added tags and fusions are not shown. Lines headed by an entry give the natural chain unless they say otherwise; changes in a name come on top.
UniProt P30837: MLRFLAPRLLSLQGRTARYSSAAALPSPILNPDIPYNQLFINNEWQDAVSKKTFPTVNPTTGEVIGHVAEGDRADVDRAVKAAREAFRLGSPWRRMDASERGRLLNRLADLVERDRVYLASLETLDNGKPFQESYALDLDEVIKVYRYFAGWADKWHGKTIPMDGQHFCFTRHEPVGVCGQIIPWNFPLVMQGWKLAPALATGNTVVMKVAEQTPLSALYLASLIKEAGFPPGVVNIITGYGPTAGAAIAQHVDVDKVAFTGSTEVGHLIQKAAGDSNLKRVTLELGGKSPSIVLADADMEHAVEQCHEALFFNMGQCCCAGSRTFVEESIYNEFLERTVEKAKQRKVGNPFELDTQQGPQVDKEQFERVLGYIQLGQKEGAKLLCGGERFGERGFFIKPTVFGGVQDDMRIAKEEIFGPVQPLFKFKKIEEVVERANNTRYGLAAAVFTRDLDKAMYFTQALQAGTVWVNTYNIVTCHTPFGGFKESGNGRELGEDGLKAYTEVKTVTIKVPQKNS
UniProt Q9NQW6: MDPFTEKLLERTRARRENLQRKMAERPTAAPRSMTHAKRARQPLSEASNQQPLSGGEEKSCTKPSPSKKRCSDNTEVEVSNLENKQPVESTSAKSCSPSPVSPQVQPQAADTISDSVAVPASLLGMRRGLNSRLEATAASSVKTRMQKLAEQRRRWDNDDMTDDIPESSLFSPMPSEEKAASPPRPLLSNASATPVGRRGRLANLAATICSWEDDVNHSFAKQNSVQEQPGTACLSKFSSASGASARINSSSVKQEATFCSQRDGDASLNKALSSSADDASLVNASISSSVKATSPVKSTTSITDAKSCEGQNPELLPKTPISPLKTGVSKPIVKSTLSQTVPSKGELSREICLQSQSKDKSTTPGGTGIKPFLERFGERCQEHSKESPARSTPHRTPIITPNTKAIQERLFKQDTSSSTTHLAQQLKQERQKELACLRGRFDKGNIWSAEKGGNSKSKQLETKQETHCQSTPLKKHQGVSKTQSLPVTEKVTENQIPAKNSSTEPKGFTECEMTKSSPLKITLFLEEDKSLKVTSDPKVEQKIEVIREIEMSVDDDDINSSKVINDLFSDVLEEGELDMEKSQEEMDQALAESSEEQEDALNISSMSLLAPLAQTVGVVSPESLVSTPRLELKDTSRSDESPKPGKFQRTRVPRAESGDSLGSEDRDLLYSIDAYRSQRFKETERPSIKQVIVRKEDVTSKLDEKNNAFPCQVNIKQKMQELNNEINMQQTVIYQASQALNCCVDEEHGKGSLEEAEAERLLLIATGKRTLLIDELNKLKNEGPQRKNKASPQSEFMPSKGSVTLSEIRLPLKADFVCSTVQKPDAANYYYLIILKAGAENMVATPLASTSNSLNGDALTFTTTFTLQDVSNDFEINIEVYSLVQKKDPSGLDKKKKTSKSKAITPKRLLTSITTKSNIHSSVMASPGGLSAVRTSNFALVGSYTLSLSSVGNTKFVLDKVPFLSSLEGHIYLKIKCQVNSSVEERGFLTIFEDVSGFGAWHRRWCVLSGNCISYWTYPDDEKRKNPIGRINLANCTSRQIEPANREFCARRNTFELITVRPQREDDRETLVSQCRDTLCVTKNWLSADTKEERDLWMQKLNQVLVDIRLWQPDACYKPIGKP
UniProt Q3KRA9: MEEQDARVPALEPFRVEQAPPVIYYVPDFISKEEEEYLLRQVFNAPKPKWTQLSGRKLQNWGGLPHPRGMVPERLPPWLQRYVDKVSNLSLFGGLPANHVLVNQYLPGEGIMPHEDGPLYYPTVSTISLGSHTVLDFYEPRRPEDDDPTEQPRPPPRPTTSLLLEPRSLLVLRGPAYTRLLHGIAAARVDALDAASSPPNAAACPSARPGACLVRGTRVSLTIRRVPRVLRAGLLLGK
UniProt Q8IY63: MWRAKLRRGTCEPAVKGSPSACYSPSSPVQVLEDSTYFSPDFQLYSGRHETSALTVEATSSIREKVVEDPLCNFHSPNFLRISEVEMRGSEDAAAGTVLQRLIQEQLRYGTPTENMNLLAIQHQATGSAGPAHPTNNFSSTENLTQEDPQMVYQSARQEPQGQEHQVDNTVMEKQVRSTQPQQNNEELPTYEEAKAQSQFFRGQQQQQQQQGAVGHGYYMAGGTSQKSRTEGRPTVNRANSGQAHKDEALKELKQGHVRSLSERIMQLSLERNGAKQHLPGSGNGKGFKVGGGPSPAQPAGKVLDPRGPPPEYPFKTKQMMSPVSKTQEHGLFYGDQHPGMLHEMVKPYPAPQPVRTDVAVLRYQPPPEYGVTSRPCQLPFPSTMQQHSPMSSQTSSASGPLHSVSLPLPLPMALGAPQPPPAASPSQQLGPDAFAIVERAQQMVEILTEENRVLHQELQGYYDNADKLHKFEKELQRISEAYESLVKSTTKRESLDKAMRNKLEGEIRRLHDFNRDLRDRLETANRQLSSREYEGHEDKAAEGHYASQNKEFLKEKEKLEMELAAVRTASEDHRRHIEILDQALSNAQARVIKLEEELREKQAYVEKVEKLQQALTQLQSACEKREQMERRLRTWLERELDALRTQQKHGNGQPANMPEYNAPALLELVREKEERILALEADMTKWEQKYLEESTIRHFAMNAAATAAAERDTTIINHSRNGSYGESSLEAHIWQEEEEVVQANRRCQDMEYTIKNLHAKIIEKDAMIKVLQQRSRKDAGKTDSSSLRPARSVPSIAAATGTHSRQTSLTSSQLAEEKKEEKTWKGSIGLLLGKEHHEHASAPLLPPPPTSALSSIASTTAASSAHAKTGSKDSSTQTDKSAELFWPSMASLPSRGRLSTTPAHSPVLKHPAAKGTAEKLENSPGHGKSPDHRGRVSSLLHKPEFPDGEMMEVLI
UniProt Q9BTT0: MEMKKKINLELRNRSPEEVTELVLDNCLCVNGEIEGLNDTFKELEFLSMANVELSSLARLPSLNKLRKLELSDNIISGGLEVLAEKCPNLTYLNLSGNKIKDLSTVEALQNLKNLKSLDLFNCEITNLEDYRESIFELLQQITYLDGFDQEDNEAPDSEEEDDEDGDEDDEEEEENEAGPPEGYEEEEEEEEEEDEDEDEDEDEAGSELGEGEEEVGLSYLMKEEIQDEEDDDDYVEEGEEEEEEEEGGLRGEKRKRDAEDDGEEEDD
UniProt Q6ZW76: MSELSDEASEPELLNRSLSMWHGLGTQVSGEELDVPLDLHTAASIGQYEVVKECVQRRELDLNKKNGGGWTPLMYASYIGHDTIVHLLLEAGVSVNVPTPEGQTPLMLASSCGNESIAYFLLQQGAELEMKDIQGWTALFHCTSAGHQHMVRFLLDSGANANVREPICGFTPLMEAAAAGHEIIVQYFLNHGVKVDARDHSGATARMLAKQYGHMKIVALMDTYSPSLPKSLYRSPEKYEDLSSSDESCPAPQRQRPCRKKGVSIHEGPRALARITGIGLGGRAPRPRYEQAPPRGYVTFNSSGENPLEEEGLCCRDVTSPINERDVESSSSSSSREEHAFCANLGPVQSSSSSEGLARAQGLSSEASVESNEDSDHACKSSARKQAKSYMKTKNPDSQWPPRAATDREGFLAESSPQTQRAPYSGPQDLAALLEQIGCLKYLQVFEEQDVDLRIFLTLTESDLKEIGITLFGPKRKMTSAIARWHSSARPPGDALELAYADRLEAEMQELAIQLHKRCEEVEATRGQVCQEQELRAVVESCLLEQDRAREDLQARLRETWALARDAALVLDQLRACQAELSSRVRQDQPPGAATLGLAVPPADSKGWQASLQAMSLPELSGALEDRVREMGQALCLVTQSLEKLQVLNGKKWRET
UniProt Q8IWZ3: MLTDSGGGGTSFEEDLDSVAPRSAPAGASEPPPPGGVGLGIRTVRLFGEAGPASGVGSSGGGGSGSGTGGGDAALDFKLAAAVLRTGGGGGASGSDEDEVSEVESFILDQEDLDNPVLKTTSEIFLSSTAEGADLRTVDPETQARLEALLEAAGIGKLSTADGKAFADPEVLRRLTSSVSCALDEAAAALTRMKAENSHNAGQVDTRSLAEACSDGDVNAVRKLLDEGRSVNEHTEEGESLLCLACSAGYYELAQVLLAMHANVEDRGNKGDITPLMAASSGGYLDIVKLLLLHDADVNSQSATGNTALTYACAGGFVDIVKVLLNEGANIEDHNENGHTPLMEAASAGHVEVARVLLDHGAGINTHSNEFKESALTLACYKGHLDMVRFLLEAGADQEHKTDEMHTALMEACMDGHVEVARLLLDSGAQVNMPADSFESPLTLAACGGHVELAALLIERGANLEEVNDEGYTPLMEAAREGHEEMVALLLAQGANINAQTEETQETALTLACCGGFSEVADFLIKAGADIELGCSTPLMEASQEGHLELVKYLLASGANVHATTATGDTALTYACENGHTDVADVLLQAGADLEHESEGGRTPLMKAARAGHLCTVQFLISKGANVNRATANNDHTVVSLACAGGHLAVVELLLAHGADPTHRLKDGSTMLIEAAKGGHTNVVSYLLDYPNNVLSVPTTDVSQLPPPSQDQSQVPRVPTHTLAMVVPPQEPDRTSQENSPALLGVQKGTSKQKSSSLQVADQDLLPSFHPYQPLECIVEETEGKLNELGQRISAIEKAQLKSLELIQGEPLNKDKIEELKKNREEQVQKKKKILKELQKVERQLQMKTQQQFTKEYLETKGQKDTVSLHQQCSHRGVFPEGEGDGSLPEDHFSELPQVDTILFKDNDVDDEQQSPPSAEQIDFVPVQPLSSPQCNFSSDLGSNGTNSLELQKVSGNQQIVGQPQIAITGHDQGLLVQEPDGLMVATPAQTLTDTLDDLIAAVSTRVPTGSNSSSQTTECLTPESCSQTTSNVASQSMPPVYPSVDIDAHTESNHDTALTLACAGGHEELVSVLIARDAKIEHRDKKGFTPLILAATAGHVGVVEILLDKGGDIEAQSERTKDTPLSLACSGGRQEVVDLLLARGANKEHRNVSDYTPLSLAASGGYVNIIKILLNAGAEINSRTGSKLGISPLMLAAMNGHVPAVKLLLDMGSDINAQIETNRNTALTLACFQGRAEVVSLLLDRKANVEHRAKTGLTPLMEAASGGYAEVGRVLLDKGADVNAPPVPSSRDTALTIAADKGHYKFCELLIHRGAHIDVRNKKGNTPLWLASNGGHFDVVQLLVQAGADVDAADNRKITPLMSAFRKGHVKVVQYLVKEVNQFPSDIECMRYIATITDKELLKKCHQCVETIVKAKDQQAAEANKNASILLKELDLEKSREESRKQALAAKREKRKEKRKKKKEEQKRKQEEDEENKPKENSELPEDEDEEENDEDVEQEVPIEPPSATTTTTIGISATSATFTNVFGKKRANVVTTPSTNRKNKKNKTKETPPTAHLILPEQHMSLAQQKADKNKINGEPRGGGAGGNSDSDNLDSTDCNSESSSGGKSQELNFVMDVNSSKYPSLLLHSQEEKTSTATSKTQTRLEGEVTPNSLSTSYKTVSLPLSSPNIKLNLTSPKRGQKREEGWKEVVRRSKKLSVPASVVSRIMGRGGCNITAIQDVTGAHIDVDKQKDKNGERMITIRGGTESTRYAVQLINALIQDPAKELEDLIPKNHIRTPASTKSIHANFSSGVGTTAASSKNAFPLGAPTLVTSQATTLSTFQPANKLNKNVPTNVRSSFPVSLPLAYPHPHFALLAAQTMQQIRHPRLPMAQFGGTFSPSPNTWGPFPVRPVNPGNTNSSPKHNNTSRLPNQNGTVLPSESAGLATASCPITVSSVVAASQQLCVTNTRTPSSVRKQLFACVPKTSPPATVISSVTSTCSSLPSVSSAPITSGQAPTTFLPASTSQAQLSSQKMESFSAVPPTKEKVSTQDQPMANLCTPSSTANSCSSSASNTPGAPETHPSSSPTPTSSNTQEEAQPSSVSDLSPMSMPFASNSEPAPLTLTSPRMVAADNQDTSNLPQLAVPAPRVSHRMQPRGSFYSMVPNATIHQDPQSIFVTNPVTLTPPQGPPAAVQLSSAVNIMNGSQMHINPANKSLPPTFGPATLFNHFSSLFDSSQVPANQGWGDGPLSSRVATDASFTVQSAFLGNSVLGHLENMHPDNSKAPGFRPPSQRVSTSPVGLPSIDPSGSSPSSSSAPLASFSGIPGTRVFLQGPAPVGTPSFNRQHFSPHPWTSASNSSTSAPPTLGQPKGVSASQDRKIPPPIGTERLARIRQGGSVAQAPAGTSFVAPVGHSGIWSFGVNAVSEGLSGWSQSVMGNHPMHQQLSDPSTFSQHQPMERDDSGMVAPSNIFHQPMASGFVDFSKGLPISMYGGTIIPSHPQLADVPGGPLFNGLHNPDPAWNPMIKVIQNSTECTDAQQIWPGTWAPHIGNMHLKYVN

What was measured:
Test in all cases: log2 fold change, soluble protein after heating vs DMSO (PISA); higher = thermal stabilisation; K562 lysate, 10 uM; active = over 0.2 and 3.5 SD of the protein, either way, in both replicates (recomputed)
alvocidib = compound: CN1CC[C@H](c2c(O)cc(O)c3c(=O)cc(-c4ccccc4Cl)oc23)[C@H](O)C1 [alvocidib]
Method in brief: (§1)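 To prepare the extract, K562 pellets were dounce-homogenised in PBS pH 7.4 with 1 mM MgCl2, giving crude material at 1 mg/mL protein. This was treated with 10 μM compound for 30 min, then heated in aliquots for 3 min over 48°C-58°C before pooling and addition of NP-40 to 0.5% at 4°C. Centrifugation at 21,000xg for 90 min left soluble protein in the supernatant, which TMTpro 16plex LC-MS/MS quantified with equalised channel sums. Results are log-two fold changes in thermal stability compared with solvent controls, from duplicates.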

Tubastatin A = compound: CN1CCc2c(c3ccccc3n2Cc2ccc(C(=O)NO)cc2)C1 [Tubastatin A]
Method in brief: as §1

[1] = compound: CNC(=O)C1=CC=CC=C1NC2=NC(=NC=C2Cl)NC3=C(C=C(C=C3)N4CCOCC4)OC
Method in brief: as §1

defactinib = compound: CNC(=O)c1ccc(Nc2ncc(C(F)(F)F)c(NCc3nccnc3N(C)S(C)(=O)=O)n2)cc1 [defactinib]
Method in brief: as §1

[2] = compound: CNc1nc(-c2ccc3c(N)n[nH]c3c2)cc(N2C[C@@H](C(=O)NC3CCCCC3)CC[C@H]2C)n1
Method in brief: as §1

encorafenib = compound: COC(=O)N[C@@H](C)CNc1nccc(-c2cn(C(C)C)nc2-c2cc(Cl)cc(NS(C)(=O)=O)c2F)n1 [encorafenib]
Method in brief: as §1

[3] = compound: COC(=O)[C@H](CCSC)NC(=O)C1=C(C=C(C=C1)NC[C@H](CS)N)C2=CC=CC=C2
Method in brief: as §1

alisertib = compound: COc1cc(Nc2ncc3c(n2)-c2ccc(Cl)cc2C(c2c(F)cccc2OC)=NC3)ccc1C(=O)O [alisertib]
Method in brief: as §1

[4] = compound: COc1cc2nc(-c3cc(F)ccc3O)nc(N[C@@H]3CNC[C@H]3C(C)(C)O)c2cc1OC
Method in brief: as §1

gefitinib = compound: COc1cc2ncnc(Nc3ccc(F)c(Cl)c3)c2cc1OCCCN1CCOCC1 [gefitinib]
Method in brief: as §1

lapatinib = compound: CS(=O)(=O)CCNCc1ccc(-c2ccc3ncnc(Nc4ccc(OCc5cccc(F)c5)c(Cl)c4)c3c2)o1 [lapatinib]
Method in brief: as §1

pictilisib = compound: CS(=O)(=O)N1CCN(Cc2cc3nc(-c4cccc5[nH]ncc45)nc(N4CCOCC4)c3s2)CC1 [pictilisib]
Method in brief: as §1

crizotinib = compound: C[C@@H](Oc1cc(-c2cnn(C3CCNCC3)c2)cnc1N)c1c(Cl)ccc(F)c1Cl [crizotinib]
Method in brief: as §1

[5] = compound: C[C@H](C1=CC=C(C=C1)C(=O)NC2=C3C=CNC3=NC=C2)N
Method in brief: as §1

duvelisib = compound: C[C@H](Nc1ncnc2nc[nH]c12)c1cc2cccc(Cl)c2c(=O)n1-c1ccccc1 [duvelisib]
Method in brief: as §1

gandotinib = compound: Cc1cc(Nc2cc(CN3CCOCC3)c3nc(C)c(Cc4ccc(Cl)cc4F)n3n2)n[nH]1 [gandotinib]
Method in brief: as §1

tozasertib = compound: Cc1cc(Nc2cc(N3CCN(C)CC3)nc(Sc3ccc(NC(=O)C4CC4)cc3)n2)n[nH]1 [tozasertib]
Method in brief: as §1

doramapimod = compound: Cc1ccc(-n2nc(C(C)(C)C)cc2NC(=O)Nc2ccc(OCCN3CCOCC3)c3ccccc23)cc1 [doramapimod]
Method in brief: as §1

bafetinib = compound: Cc1ccc(NC(=O)c2ccc(CN3CC[C@H](N(C)C)C3)c(C(F)(F)F)c2)cc1Nc1nccc(-c2cncnc2)n1 [bafetinib]
Method in brief: as §1

[6] = compound: Cc1cccc(CC(=O)N2CCc3c2ccc(-c2cn(C)c4ncnc(N)c24)c3F)n1
Method in brief: as §1

| Target | log2 fold change (alvocidib) | log2 fold change (Tubastatin A) | log2 fold change [1] | log2 fold change (defactinib) | log2 fold change [2] | log2 fold change (encorafenib) | log2 fold change [3] | log2 fold change (alisertib) | log2 fold change [4] | log2 fold change (gefitinib) | log2 fold change (lapatinib) | log2 fold change (pictilisib) | log2 fold change (crizotinib) | log2 fold change [5] | log2 fold change (duvelisib) | log2 fold change (gandotinib) | log2 fold change (tozasertib) | log2 fold change (doramapimod) | log2 fold change (bafetinib) | log2 fold change [6] |
| --- | --- | --- | --- | --- | --- | --- | --- | --- | --- | --- | --- | --- | --- | --- | --- | --- | --- | --- | --- | --- |
| ALDH1B1 (UniProt P30837) | inactive: 0.168 | inactive: 0.01 | active: 0.233 | inactive: -0.029 | inactive: 0.007 | inactive: -0.008 | inactive: 0.127 | inactive: -0.002 | inactive: 0.006 | inactive: -0.026 | inactive: -0.012 | inactive: 0.008 | inactive: -0.007 | inactive: -0.024 | inactive: 0.058 | inactive: 0.052 | inactive: 0.021 | inactive: -0.017 | inactive: -0.049 | inactive: -0.041 |
| ANLN (UniProt Q9NQW6) | inactive: -0.037 | inactive: -0.196 | inactive: 0.058 | inactive: 0.012 | inactive: 0.011 | inactive: 0.036 | inactive: 0.102 | inactive: 0.051 | inactive: 0.004 | inactive: 0.03 | inactive: -0.007 | inactive: 0.004 | inactive: -0.02 | inactive: -0.037 | inactive: -0.02 | inactive: 0.024 | inactive: 0.052 | inactive: 0.01 | inactive: -0.038 | inactive: 0.028 |
| ALKBH6 isoform 2 (UniProt Q3KRA9) | inactive: 0.047 | inactive: -0.009 | inactive: -0.063 | inactive: -0.068 | inactive: 0.031 | inactive: 0.023 | inactive: 0.011 | inactive: -0.078 |  | inactive: 0.001 |  |  | inactive: -0.036 | inactive: 0.077 | inactive: 0.02 | inactive: -0.05 | inactive: 0.006 | inactive: 0.175 |  | inactive: -0.006 |
| AMOTL1 (UniProt Q8IY63) | inactive: 0.094 | inactive: 0.055 | inactive: 0.049 | inactive: -0.072 | inactive: 0.042 | inactive: 0.145 | inactive: -0.083 | inactive: 0.037 |  | inactive: 0.057 |  | inactive: -0.049 | inactive: 0.023 | inactive: 0.017 | inactive: -0.11 | inactive: -0.166 | inactive: 0.041 | inactive: 0.012 | inactive: 0.006 | inactive: 0.065 |
| AP1B1 (UniProt Q10567) | inactive: 0.011 | inactive: -0.002 | inactive: 0.017 | inactive: 0.008 | inactive: 0.009 | inactive: 0.008 | inactive: 0.011 | inactive: -0.009 | inactive: 0 | inactive: 0.006 | inactive: 0.004 | inactive: -0.017 | inactive: -0.009 | inactive: -0.021 | inactive: -0.011 | inactive: 0.027 | inactive: -0.012 | inactive: 0.06 | inactive: -0.03 | inactive: 0.009 |
| AKT1S1 isoform 3 (UniProt Q96B36) | inactive: -0.008 | inactive: 0.025 | inactive: -0.022 | inactive: -0.015 | inactive: 0.025 | inactive: -0.02 | inactive: 0.036 | inactive: -0.002 | inactive: 0.012 | inactive: 0.138 | inactive: 0.015 | inactive: -0.001 | inactive: 0.019 | inactive: 0.026 | inactive: -0.003 | inactive: 0.024 | inactive: -0.026 | inactive: 0.009 | inactive: -0.037 | inactive: -0.002 |
| ANP32E isoform 3 (UniProt Q9BTT0) | inactive: -0.27 |  |  | inactive: -0.141 |  | inactive: 0.036 | inactive: -0.015 |  |  |  |  | inactive: -0.012 |  | active: -0.843 |  | inactive: 0.213 | inactive: 0.165 |  | inactive: -0.14 | inactive: 0.439 |
| ANKS3 (UniProt Q6ZW76) | inactive: 0.114 |  |  | inactive: 0.133 | inactive: 0.101 | inactive: 0.045 | inactive: -0.051 |  | inactive: 0.259 |  | inactive: 0.101 | inactive: 0.067 | inactive: -0.099 | inactive: -0.32 | inactive: -0.076 | inactive: -0.019 | inactive: -0.048 | inactive: -0.017 | inactive: -0.145 | inactive: 0.128 |
| ANKHD1 isoform 2 (UniProt Q8IWZ3) | inactive: -0.083 | inactive: -0.091 | inactive: 0.148 |  | inactive: -0.147 | inactive: 0.114 | inactive: 0.071 | inactive: 0.04 |  | inactive: 0.024 |  | inactive: 0.012 | inactive: 0.02 | inactive: 0.091 | inactive: -0.008 | inactive: -0.109 | inactive: 0.082 | inactive: -0.077 | inactive: 0.022 | inactive: -0.016 |
| AMIGO2 (UniProt Q86SJ2) | inactive: -0.12 |  |  | inactive: 0.013 |  |  |  | inactive: 0.12 |  | inactive: 0.089 |  |  |  | inactive: 0.002 |  | inactive: 0.104 |  |  |  | inactive: 0.266 |

2 consecutive entries already listed:

| Target | log2 fold change (alvocidib) | log2 fold change (Tubastatin A) | log2 fold change [1] | log2 fold change (defactinib) | log2 fold change [2] | log2 fold change (encorafenib) | log2 fold change [3] | log2 fold change (alisertib) | log2 fold change [4] | log2 fold change (gefitinib) | log2 fold change (lapatinib) | log2 fold change (pictilisib) | log2 fold change (crizotinib) | log2 fold change [5] | log2 fold change (duvelisib) | log2 fold change (gandotinib) | log2 fold change (tozasertib) | log2 fold change (doramapimod) | log2 fold change (bafetinib) | log2 fold change [6] |
| --- | --- | --- | --- | --- | --- | --- | --- | --- | --- | --- | --- | --- | --- | --- | --- | --- | --- | --- | --- | --- |
| AMOTL1 (UniProt Q8IY63) | inactive: 0.094 | inactive: 0.055 | inactive: 0.049 | inactive: -0.072 | inactive: 0.042 | inactive: 0.145 | inactive: -0.083 | inactive: 0.037 |  | inactive: 0.057 |  | inactive: -0.049 | inactive: 0.023 | inactive: 0.017 | inactive: -0.11 | inactive: -0.166 | inactive: 0.041 | inactive: 0.012 | inactive: 0.006 | inactive: 0.065 |
| AP1B1 (UniProt Q10567) | inactive: 0.011 | inactive: -0.002 | inactive: 0.017 | inactive: 0.008 | inactive: 0.009 | inactive: 0.008 | inactive: 0.011 | inactive: -0.009 | inactive: 0 | inactive: 0.006 | inactive: 0.004 | inactive: -0.017 | inactive: -0.009 | inactive: -0.021 | inactive: -0.011 | inactive: 0.027 | inactive: -0.012 | inactive: 0.06 | inactive: -0.03 | inactive: 0.009 |
